# Measured values taken from the supplement of paper PMC10470496.
# Structures can show the parent of a compound that is named as a salt. The list shows a part of the results. Many values rest on one well or one pass, so single values are uncertain.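 The three strains are clinical Candida auris isolates from the CDC resistance isolate bank, from clades III, IV and I, grown in RPMI-1640 at 35°C. Growth is background-corrected OD600 relative to vehicle-only wells on the same plate; a hit meant over 50% inhibition in at least two strains plus a plate-corrected B-score above 0.1.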
# Tested on: C. auris AR-386
# Experiment: growth relative to vehicle control (OD600 ratio) (fraction); higher = less inhibition
# Conditions: 10 µM; 24 h
row,Compound,growth
1,Cc1nc(Nc2ncc(C(=O)Nc3c(C)cccc3Cl)s2)cc(N2CCN(CCO)CC2)n1 [Dasatinib Monohydrate],1
2,CCN1CCN(Cc2ccc(Nc3ncc(F)c(-c4cc(F)c5nc(C)n(C(C)C)c5c4)n3)nc2)CC1,0.69
3,Cc1c(Cl)cccc1Nc1ccccc1C(=O)O [Tolfenamic Acid],0.73
4,C[N+]1(C)CCC(OC(=O)C(O)(c2ccccc2)C2CCCC2)C1 (stereo not drawn) [Glycopyrrolate],0.63
5,Cc1cc2c(s1)Nc1ccccc1N=C2N1CCN(C)CC1 [Olanzapine],1.27
6,CCC(=O)O[C@]1(C(=O)CCl)[C@@H](C)C[C@H]2[C@@H]3C[C@H](F)C4=CC(=O)C=C[C@]4(C)[C@@]3(F)[C@@H](O)C[C@@]21C [Halobetasol Propionate],1.28
7,CN(C)c1nc(N(C)C)nc(N(C)C)n1 [Altretamine],0.89
8,Cc1cn([C@@H]2C[C@@H](O)[C@H](CO)O2)c(=O)[nH]c1=O [Telbivudine],0.88
9,O=C(CCNNC(=O)c1ccncc1)NCc1ccccc1 [Nialamide],0.98
10,CCCN[C@H]1CCc2nc(N)sc2C1 [Pramipexole],1.27
11,C[N+]1(C)[C@@H]2C[C@@H](OC(=O)C(O)(c3cccs3)c3cccs3)C[C@H]1[C@@H]1O[C@@H]12 [Tiotropium Bromide hydrate],0.81
12,Cc1cccc(C)c1OCC(=O)N[C@@H](Cc1ccccc1)[C@@H](O)C[C@H](Cc1ccccc1)NC(=O)[C@H](C(C)C)N1CCCNC1=O [Lopinavir],0.78
13,CC(CCc1ccccc1)NCC(O)c1ccc(O)c(C(N)=O)c1 (stereo not drawn) [Labetalol HCl],0.6
14,Cc1cccc(Nc2ccccc2C(=O)O)c1C [Mefenamic Acid],1.09
15,COc1cc(C(=O)NC2CCCNC2)cc(OC)c1OC (stereo not drawn) [Troxipide],0.77
16,CCCCc1nc(Cl)c(CO)n1Cc1ccc(-c2ccccc2-c2nnn[nH]2)cc1 [Losartan Potassium (DuP 753)],1.26
17,CC[C@]1(O)C[C@H]2CN(CCc3c([nH]c4ccccc34)[C@@](C(=O)OC)(c3cc4c(cc3OC)N(C=O)[C@H]3[C@@](O)(C(=O)OC)[C@H](OC(C)=O)[C@]5(CC)C=CCN6CC[C@]43[C@@H]65)C2)C1 [Vincristine sulfate],0.73

# A stretch taken from the entries so far, as a working copy:
row,Compound,growth
12,Cc1cccc(C)c1OCC(=O)N[C@@H](Cc1ccccc1)[C@@H](O)C[C@H](Cc1ccccc1)NC(=O)[C@H](C(C)C)N1CCCNC1=O [Lopinavir],0.78
13,CC(CCc1ccccc1)NCC(O)c1ccc(O)c(C(N)=O)c1 (stereo not drawn) [Labetalol HCl],0.6

# (cont.)

row,Compound,growth
1,CC#C[C@]1(O)CC[C@H]2[C@@H]3CCC4=CC(=O)CCC4=C3[C@@H](c3ccc(N(C)C)cc3)C[C@@]21C [Mifepristone],1.06
2,Cc1nc(C)c(Cl)c(O)c1Cl [Clopidol],0.66
3,O=C1OCCN1/N=C/c1ccc([N+](=O)[O-])o1 [Furazolidone],0.92
4,CN(C)[C@@H]1C(O)=C(C(N)=O)C(=O)[C@@]2(O)C(O)=C3C(=O)c4c(O)cccc4[C@@](C)(O)[C@H]3[C@H](O)[C@@H]12 [Oxytetracycline (Terramycin)],0.61
5,C#C[C@]1(OC(C)=O)CC[C@H]2[C@@H]3CCC4=C[C@@H](OC(C)=O)CC[C@@H]4[C@H]3CC[C@@]21C [Ethynodiol diacetate],0.71
6,OCc1cc(C(O)CNCCCCCCOCCCCc2ccccc2)ccc1O (stereo not drawn) [Salmeterol Xinafoate],0.88
7,C[C@@H](O)[C@H]1C(=O)N2C(C(=O)O)=C(S[C@@H]3CN[C@H](C(=O)N(C)C)C3)[C@H](C)[C@H]12 [Meropenem],1.16
8,CC(O)(P(=O)(O)O)P(=O)(O)O [Etidronate],0.66
9,Cn1c([N+](=O)[O-])cnc1COC(N)=O [Ronidazole],0.98
10,Brc1c(NC2=NCCN2)ccc2nccnc12 [Brimonidine Tartrate],0.77
11,COC(c1ccccc1)(c1ccccc1)[C@H](Oc1nc(C)cc(C)n1)C(=O)O [Ambrisentan],1.15
12,CC(=O)N[C@@H](CCC(N)=O)C(=O)O [Aceglutamide],0.96
13,CC[C@@H]([C@H](C)O)n1ncn(-c2ccc(N3CCN(c4ccc(OC[C@@H]5CO[C@@](Cn6cncn6)(c6ccc(F)cc6F)C5)cc4)CC3)cc2)c1=O [Posaconazole],0.07
14,Cc1nc(=O)c2cc(CN(C)c3ccc(C(=O)N[C@@H](CCC(=O)O)C(=O)O)s3)ccc2[nH]1 [Raltitrexed],1.35
15,Cc1cn[nH]c1 [Fomepizole],1.21
16,COc1ccc2c(c1)c(CC(=O)OCC(=O)O)c(C)n2C(=O)c1ccc(Cl)cc1 [Acemetacin],0.9
